{"source": "PubChem BioAssay AID504444", "about": "(National Center for Advancing Translational Sciences (NCATS), 2011)", "note": "The whole screen tested about 360,000 compounds, of which about 7,500 (2.1%) were called active. Inconclusive means that the source gave no clear call. Such entries were picked first, then a sample of the others. Calls follow the shape of the dose curve; as a rule, active = well fitted inhibition curve with a large enough effect; inconclusive = small, poorly fitted or top-dose-only effect, or effect the other way; inactive = flat fitted curve, though single readings scatter. Potencies of inconclusive entries are doubtful fits and often do not repeat. Potency is read from the fitted curve at half-maximal effect.", "data": [{"experiment": "Nrf2 qHTS screen for inhibitors; also: nearly all actives have a fitted effect of over 60% in size", "settings": "A549 ARE-Fluc reporter, luciferase luminescence, 18-24 h; series mostly up to 46 µM", "how_it_was_run": "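Nrf2 activity is the BugLite luminescence, read 15 min after reagent at room temperature, following CellTiter-Fluor cytotoxicity readout (30 min, 37C). Compound titrations were applied for 18-24 h to 5000 A549 ARE_Fluc cells/well in 5% FBS OPTI-MEM.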", "values": [{"smiles": "CCOC(=O)c1ccccc1NC(=O)CN(c1cc(C(F)(F)F)ccc1Cl)S(C)(=O)=O", "Potency": "inconclusive: 29.1 µM [falling, single point]"}, {"smiles": "O=C(COC(=O)CN1C(=O)c2ccccc2C1=O)NC1CCCC1", "Potency": "inactive"}, {"smiles": "Cc1ccc(-c2noc(CN(C(=O)c3ccc(C(C)(C)C)cc3)C(C)C)n2)cc1", "Potency": "inconclusive: 29.1 µM [falling, single point]"}, {"smiles": "COc1cccc(NC(=O)Cn2c(=O)c3cccn3c3ccc(F)cc32)c1", "Potency": "inactive"}, {"smiles": "C=C(C)n1c(=O)n(Cc2ccccc2C)c2ccccc21", "Potency": "inactive"}, {"smiles": "Cc1cccc(-c2nnc(-c3ccc(N)cc3)o2)c1", "Potency": "inconclusive: 7.31 µM [activator, partial curve]"}, {"smiles": "CCCN1CCC(=O)N(CCSc2ccc(Br)cc2)CC1", "Potency": "inconclusive: 8.2 µM [activator, partial curve]"}, {"smiles": "CCCCSCCCNC(=O)c1cn(CC)c2ccc(S(=O)(=O)N(C)C3CCCCC3)cc2c1=O", "Potency": "inconclusive: 32.6 µM [falling, partial curve, poor fit]"}, {"smiles": "CC(C)c1ccc(NC(=O)c2cccnc2)cc1", "Potency": "inconclusive: 23.1 µM [activator, partial curve, poor fit]"}, {"smiles": "COCCN=C1NN=C(c2ccc(C)c([N+](=O)[O-])c2)CS1", "Potency": "inconclusive: 29.1 µM [activator, single point]"}, {"smiles": "Cc1ccc(C2CC(=O)c3cnc(N4CCN(c5ccccc5)CC4)nc3C2)cc1", "note": "(stereo not given)", "Potency": "inactive"}, {"smiles": "c1ccc(-c2nc(NCc3ccco3)c3ccccc3n2)nc1", "Potency": "active: 20.6 µM"}, {"smiles": "CCc1ccc(N2C(=O)CC(N3CCC(C(=O)OC)CC3)C2=O)cc1", "note": "(stereo not given)", "Potency": "inconclusive: 0.206 µM [falling, partial curve]"}, {"smiles": "Cc1ccc(-n2c(C)cc(/C=C(\\C#N)C(=O)NCC3CCCO3)c2C)cc1", "note": "(stereo not given)", "Potency": "inconclusive: 0.58 µM [activator, full curve]"}, {"smiles": "Cc1ccc(CCNC(=O)CCS(=O)(=O)c2ccc3c(c2)oc(=O)n3C)cc1", "Potency": "inconclusive: 18.4 µM [activator, single point]"}, {"smiles": "COc1cccc(N2CCN(S(=O)(=O)c3ccc(-c4cc(C(F)(F)F)on4)s3)CC2)c1", "Potency": "inconclusive: 7.31 µM [activator, partial curve, poor fit]"}, {"smiles": "COc1ccc(-c2nc(CN3CCN(c4ccccc4OC)CC3)c(C)o2)cc1", "Potency": "active: 18.4 µM"}, {"smiles": "CCOc1cc(/C=N\\NC(=O)c2ccc(NC(=O)C(C)(C)C)cc2)ccc1OC(=O)c1ccc(C)cc1", "Potency": "active: 10.3 µM"}, {"smiles": "COc1ccc(C(=O)O/N=C(/c2ccccc2)c2ccncc2)cc1", "Potency": "inconclusive: 3.26 µM [activator, full curve]"}, {"smiles": "CN(C#N)c1nc(N2CCOCC2)nc(N2CCOCC2)n1", "Potency": "inconclusive: 25.9 µM [falling, partial curve, poor fit]"}, {"smiles": "C#Cc1ccc2c(c1)COc1c3ccccc3nn1-2", "Potency": "inconclusive: 7.31 µM [activator, partial curve]"}, {"smiles": "COc1ccccc1CN(C)C(=O)c1cc(-c2cc(OC)c(OC)c(OC)c2)nc2ccccc12", "Potency": "inconclusive: 16.4 µM [falling, single point]"}, {"smiles": "Cc1cccc(N2CC(C(=O)Nc3ccc(N4CCOCC4)cc3)CC2=O)c1C", "note": "(stereo not given)", "Potency": "inconclusive: 29.1 µM [activator, single point]"}, {"smiles": "Cc1cc(NS(=O)(=O)c2ccc(NC(=S)NC(=O)c3ccc(Br)cc3)cc2)no1", "Potency": "inactive"}, {"smiles": "Cc1ccccc1-n1c(=O)c2ccccc2n(Cc2ccc(F)cc2)c1=O", "Potency": "inactive"}, {"smiles": "Fc1cccc(F)c1CSc1nc2ccccc2[nH]1", "Potency": "inconclusive: 6.51 µM [activator, full curve, poor fit]"}, {"smiles": "O=[N+]([O-])c1ccn(-c2nc(-c3cccs3)cc(C(F)(F)F)n2)n1", "Potency": "inconclusive: 29.1 µM [falling, single point]"}, {"smiles": "CC[C@]1(C(=O)OC)[C@H]2C(=O)N(Cc3ccccc3)C(=O)[C@H]2[C@H]2CN(C)C(=NC)N21", "Potency": "inactive"}, {"smiles": "O=C(Oc1ccc2c(=O)c(Oc3ccc4ccccc4c3)coc2c1)c1cccnc1", "Potency": "inconclusive: 2.59 µM [activator, full curve, poor fit]"}, {"smiles": "c1ccc2[nH]c3cc4ncnc4cc3nc2c1", "Potency": "active: 5.8 µM"}, {"smiles": "Cc1cc(C(=O)OCC(=O)N2CC(=O)Nc3ccccc32)c(C)n1-c1ccccc1", "Potency": "inconclusive: 23.1 µM [falling, single point]"}, {"smiles": "COc1ccc(CNC(=O)Cc2nn(C)c(=O)c3ccccc23)cc1", "Potency": "active: 5.8 µM"}, {"smiles": "O=C(Nc1ccc(F)cc1)c1ncn(-c2ccccc2)n1", "Potency": "inconclusive: 4.11 µM [activator, partial curve]"}, {"smiles": "COc1cc(-c2ccc3oc(-c4ccsc4)cc(=O)c3c2)cc(OC)c1OC", "Potency": "inconclusive: 29.1 µM [falling, single point]"}, {"smiles": "Cc1ccc(S(=O)(=O)NCCC(=O)N2CCN(c3cccc(Cl)c3)CC2)cc1C", "Potency": "inconclusive: 16.4 µM [falling, single point]"}, {"smiles": "O=C(NC1CCCCC1)c1ccc(-c2ccccc2F)o1", "Potency": "inconclusive: 1.03 µM [activator, partial curve, poor fit]"}, {"smiles": "CCCCSc1ncnc2c1ncn2C1CCCCO1", "note": "(stereo not given)", "Potency": "inconclusive: 7.31 µM [activator, partial curve]"}, {"smiles": "COc1cccc(-c2nnc(SCC(=O)N3CCc4ccccc43)o2)c1", "Potency": "inactive"}, {"smiles": "N#CC(c1ccc(O)cc1)N1CCOCC1", "note": "(stereo not given)", "Potency": "inconclusive: 29.1 µM [activator, single point]"}, {"smiles": "CC(=O)Nc1cccc(NC(=O)CSc2nc(C)c(C)c(C)c2C#N)c1", "Potency": "inconclusive: 16.4 µM [falling, partial curve, poor fit]"}, {"smiles": "Cc1cc2c(cc1C)NC(CC(=O)Nc1cccc(C)c1C)C(=O)N2", "note": "(stereo not given)", "Potency": "inactive"}, {"smiles": "O=C(CSc1ccc(F)cc1)Nc1ccc(C2SCCS2)cc1", "Potency": "inconclusive: 4.61 µM [activator, full curve, poor fit]"}, {"smiles": "CCN(CC)c1ccc(NC(=S)Nc2ccc(F)cc2)cc1", "Potency": "inactive"}, {"smiles": "CCOC(=O)c1c(NC(=O)OC)sc2c1CCC2", "Potency": "inactive"}, {"smiles": "CCOC(=O)c1sc2nc(C(C)C)c3c(c2c1N)CC(C)(C)OC3", "Potency": "inactive"}, {"smiles": "O=C(Cc1c[nH]c2ccccc12)Nc1ccc(N2CCOCC2)cc1", "Potency": "inactive"}, {"smiles": "CCCn1c(SCC#N)nc2c(c1=O)C1(CCCC1)Cc1ccccc1-2", "Potency": "inactive"}, {"smiles": "O=C(CSc1n[nH]c(-c2ccccc2)n1)NC(=O)NCc1ccco1", "Potency": "inactive"}, {"smiles": "Clc1ccc(Nc2ncnc3ccc(Br)cc23)cc1", "Potency": "active: 13 µM"}, {"smiles": "Cc1noc(NS(=O)(=O)c2ccc(NC(=O)COc3ccccc3Br)cc2)c1C", "Potency": "inconclusive: 16.4 µM [falling, partial curve, poor fit]"}, {"smiles": "O=c1oc2ccc3ccccc3c2cc1-c1nc2c(s1)CCc1ccccc1-2", "Potency": "inactive"}, {"smiles": "O=C(Nc1ccccc1N1CCOCC1)c1ccc2nc[nH]c2c1", "Potency": "inconclusive: 29.1 µM [activator, single point]"}, {"smiles": "Nc1nc(-c2ccc3ccccc3c2)c(C2(O)C(=O)Nc3c(Br)cc(F)cc32)s1", "note": "(stereo not given)", "Potency": "inconclusive: 29.1 µM [falling, single point]"}, {"smiles": "COc1ccc2cc(C3OCCO3)c(Cl)nc2c1", "Potency": "inconclusive: 14.6 µM [activator, partial curve]"}, {"smiles": "Cc1cc(C=C2C(=O)c3ccccc3C2=O)c(C)n1-c1ccccc1", "Potency": "inconclusive: 0.517 µM [activator, partial curve, poor fit]"}, {"smiles": "CCOc1ccc(-c2csc(NC(=O)CSC3=NC(=O)CN3C(C)=O)n2)c2ccccc12", "Potency": "inactive"}, {"smiles": "COc1ccc(/C=C2\\SC(=S)N(CCCC(=O)Nc3ccc(O)cc3)C2=O)cc1", "Potency": "inconclusive: 23.1 µM [falling, single point]"}, {"smiles": "CCOC(=O)c1scc(-c2ccc(C)cc2)c1S(=O)(=O)Nc1cc(C)ccc1C", "Potency": "inconclusive: 18.4 µM [falling, partial curve, poor fit]"}, {"smiles": "CCc1nnc(NC(=O)c2cccc(S(=O)(=O)N(C)c3ccc(OC)cc3)c2)s1", "Potency": "inconclusive: 18.4 µM [falling, partial curve, poor fit]"}, {"smiles": "CC(C)(C)NC(=O)CN(C(=O)CS(=O)CC(=O)Nc1ccc(F)cc1)c1ccc2c(c1)OCCO2", "note": "(stereo not given)", "Potency": "inconclusive: 23.1 µM [falling, single point]"}, {"smiles": "CCCCN=C1NN=C(c2ccc(C)c(C)c2)CS1", "Potency": "inconclusive: 2.59 µM [activator, single point]"}, {"smiles": "Cc1ccc(C(=O)N2CCN(c3ccccc3O)CC2)cc1S(=O)(=O)N1CCCCC1", "Potency": "inconclusive: 18.4 µM [falling, single point]"}, {"smiles": "COCCn1c(=S)[nH]c2cc(C(=O)N3CCN(c4ccc(F)cc4)CC3)ccc2c1=O", "Potency": "inconclusive: 1.64 µM [falling, full curve, poor fit]"}, {"smiles": "COC(=O)Nc1ccc(S(=O)(=O)N2CCN(c3ccc(F)cc3)CC2)cc1", "Potency": "inconclusive: 25.9 µM [falling, single point]"}, {"smiles": "CC(=O)c1cc2c(cc1NC(=O)c1ccco1)OCCO2", "Potency": "inconclusive: 4.11 µM [activator, full curve]"}, {"smiles": "COc1cc(/C=N/NC(=O)C2COc3ccccc3O2)ccc1O", "note": "(stereo not given)", "Potency": "inconclusive: 9.2 µM [activator, partial curve]"}, {"smiles": "CCN(CC(=O)NCc1cccs1)C(=O)c1cccc(S(=O)(=O)Nc2ccccc2Cl)c1", "Potency": "inactive"}, {"smiles": "COc1ccc(OC)c(NC(=O)CN(c2ccccc2OC)S(=O)(=O)c2ccc(C)cc2)c1", "Potency": "inactive"}, {"smiles": "Cc1cc(C)nc(N2CCCC(C(=O)Nc3ccc4c(c3)OCO4)C2)n1", "note": "(stereo not given)", "Potency": "inactive"}, {"smiles": "Cc1ccc(C(=O)N/N=C/c2c[nH]c3ccccc23)o1", "Potency": "inconclusive: 18.4 µM [activator, partial curve, poor fit]"}]}]}
